The source of these data is PMC12338722.

The experiment concerns the target TapA, bacterial two-hybrid fusion. Briefly: two-hybrid.

Results are given in words; binding and its absence hold for the method and conditions named. Binding can be weak; no strength is given. Sequences can lack the tags named with a protein.

B1: MtrB truncation mutant MtrB_(1-285), bacterial two-hybrid fusion (domain or fragment, UniProt A0QTK3 1-285)
chain: MIFGSRRRIRGRWGGSGPLVRGLGTLGRALSLVWRRSLQLRVVTLTLGLSLAVILVLGFVLTSQITDRILEVKVKAATEEVERARNTVSGIVGGEESRSLESSLQLARNTLVDRKADVRADMAGAFDAVLVVPGDGPRAAAAAGPVAQIPEALRDFVKAGQVSYQYATVQTEGFSGPALIVGSPTTSSVPNLELYLIFPLNNEESTIALVRGTMATGGVVLLGLLAAIALVVARQIVQPVRSASRIAERFAEGHLTERMPVRGEDDMARLAVSFNDMAESLSRQI
Turning to B1, the binding entry is listed as “binds”.
